Assay results published in US20070010581A1, “Use of 2,5-dihydroxybenzenesulfonic compounds for the treatment of disorders based on an impairment of no production and/or of regulation of edhf function” (priority 2002, published 2007).
At least one structure is not confirmed: it was looked up by name or label, or the drawing left a doubt.

Tested on: human penile resistance arteries (HPRA)
Assay: Vascular reactivity of resistance penile arteries (myograph, isometric tension)
Details: apamin (100 nM) and charybdotoxin (100 nM)
From the text: Penile small arteries, helicine arteries (lumen diameter 150-400 μm), which are the terminal branches of deep penile arteries, were dissected by carefully removing the adhering trabecular tissue, and arterial ring segments (of 2 mm length) were subsequently mounted on two 40 μm wires on microvascular double Halpern-Mulvany myographs (J.P. Trading, Aarhus, Denmark) for isometric tension recordings. […] Passive tension and internal circumference of the vascular segments when relaxed in situ under a transmural pressure of […] (L100) were determined. […] The preparations were then exposed to 125 mM K^+ (KPSS, equimolar substitution of NaCl for KCl in PSS) and the contractile response was measured. The arteries were contracted with 1 μm norepinephrine (approximately 80% of KPSS induced contraction) and relaxation responses were evaluated by cumulative additions of compounds to the chambers.
Relaxation responses are expressed as percentage of total relaxation (loss in tone) induced by the addition of 0.1 mM papaverine HCl to the chambers at the end of the experiment. All data are expressed as mean±standard error. […] Erectile responses were determined by measuring the area under the curve (AUC) of the intracavemosal pressure increases to rat cavernosal nerve stimulation normalized by mean arterial pressure values. […]

Compound: CC(=O)OCC[N+](C)(C)C [acetylcholine]
- ACh-induced relaxations of HPRA in the presence of NOS and COX inhibition, with APA and CTX: abolished
